{"source": "the supplement of paper PMC4635364", "key": {"ReNCell VM [1]": {"system": "ReNCell VM", "assay": "neuronal differentiation score (DCX+ cell fraction vs untreated, manual image score) (score (-3 to 3)); higher = more neuronal differentiation", "settings": "2 uM, 2 weeks"}, "ReNCell VM [2]": {"system": "ReNCell VM", "assay": "dopaminergic neuron differentiation score (TH+ cell fraction vs untreated, manual image score) (score (0 to 3)); higher = more TH+ dopaminergic neuron differentiation", "settings": "2 uM, 4 weeks, BDNF 10 ng/ml + GDNF 10 ng/ml"}}, "note": "The other results are listed elsewhere or left out. Single values are uncertain here, since repeats match poorly.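 ReNCell VM, a human fetal ventral-midbrain neural progenitor line, was differentiated without mitogens. Blinded raters scored images stained for doublecortin (early neurons) or tyrosine hydroxylase (dopaminergic neurons) against untreated wells (0 = no change). Scores were averaged across repeats and both raters, and compounds averaging 2 or more were selected as hits for retesting.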"}
{"compound": "CO/N=C(\\C(=O)N[C@@H]1C(=O)N2C(C(=O)O)=C(COC(C)=O)CS[C@H]12)c1csc(N)n1", "values": [{"measurement": "neuronal differentiation score", "setting": "ReNCell VM [1]; library: Spectrum", "value": "inactive: 0"}, {"measurement": "dopaminergic neuron differentiation score", "setting": "ReNCell VM [2]; library: Spectrum", "value": "inactive: 0"}]}
{"compound": "COCCOC(=O)C1=C(C)NC(C)=C(C(=O)OC(C)C)C1c1cccc([N+](=O)[O-])c1", "note": "(stereo not drawn)", "values": [{"measurement": "neuronal differentiation score", "setting": "ReNCell VM [1]; library: Spectrum", "value": "inactive: 0"}, {"measurement": "dopaminergic neuron differentiation score", "setting": "ReNCell VM [2]; library: Spectrum", "value": "inactive: 0"}]}
{"compound": "OC[C@H]1O[C@@H](OCCc2ccc(O)cc2)[C@H](O)[C@@H](O)[C@@H]1O", "note": "[salidroside]", "values": [{"measurement": "neuronal differentiation score", "setting": "ReNCell VM [1]; library: Natural", "value": "inactive: 0"}, {"measurement": "dopaminergic neuron differentiation score", "setting": "ReNCell VM [2]; library: Natural", "value": "inactive: 0"}]}
{"compound": "Nc1ccccc1C(=O)CC(N)C(=O)O", "note": "(stereo not drawn)", "values": [{"measurement": "neuronal differentiation score", "setting": "ReNCell VM [1]; library: Spectrum", "value": "inactive: 0"}, {"measurement": "dopaminergic neuron differentiation score", "setting": "ReNCell VM [2]; library: Spectrum", "value": "inactive: 0"}]}
{"compound": "CO/N=C1\\C[C@]2(C[C@@H]3C[C@@H](C/C=C(\\C)C[C@@H](C)/C=C/C=C4\\CO[C@@H]5[C@H](O)C(C)=C[C@@H](C(=O)O3)[C@]45O)O2)O[C@H](/C(C)=C/C(C)C)[C@H]1C", "values": [{"measurement": "neuronal differentiation score", "setting": "ReNCell VM [1]; library: Spectrum", "value": "inactive: 0"}, {"measurement": "dopaminergic neuron differentiation score", "setting": "ReNCell VM [2]; library: Spectrum", "value": "inactive: 0"}]}
{"compound": "COC(=O)C[C@H]1C2(C)CC34OC5(C)O[C@@]6([C@H](OC)C(OC(=O)C(C)C)[C@]7(C)C(/C(=C(/OC)C(C)C)C(=O)O[C@H]7c7ccoc7)[C@@]6(O5)[C@H](OC)[C@@]3(OC)C2OC(C)=O)[C@]14C", "note": "(stereo partly drawn)", "values": [{"measurement": "neuronal differentiation score", "setting": "ReNCell VM [1]; library: Spectrum", "value": "inactive: 0"}, {"measurement": "dopaminergic neuron differentiation score", "setting": "ReNCell VM [2]; library: Spectrum", "value": "inactive: 0"}]}
{"compound": "CC(=O)Oc1cccc(C)c1", "note": "[meta-CRESYL ACETATE]", "values": [{"measurement": "neuronal differentiation score", "setting": "ReNCell VM [1]; library: Spectrum", "value": "inactive: 0"}, {"measurement": "dopaminergic neuron differentiation score", "setting": "ReNCell VM [2]; library: Spectrum", "value": "inactive: 0"}]}
{"compound": "Cc1coc2c1C(=O)C(=O)c1c-2ccc2c1CCCC2(C)C", "note": "[tanshinone IIA]", "values": [{"measurement": "neuronal differentiation score", "setting": "ReNCell VM [1]; library: Natural", "value": "inactive: 0"}, {"measurement": "dopaminergic neuron differentiation score", "setting": "ReNCell VM [2]; library: Natural", "value": "inactive: 0"}]}
{"compound": "C[C@@H](O)[C@H]1C(=O)N2C(C(=O)O)=C(SCCNC=N)C[C@H]12", "note": "[Imipenem]", "values": [{"measurement": "neuronal differentiation score", "setting": "ReNCell VM [1]; library: Prestwick", "value": "inactive: 0"}, {"measurement": "dopaminergic neuron differentiation score", "setting": "ReNCell VM [2]; library: Prestwick", "value": "inactive: 0"}]}
